Experimental data: PubChem BioAssay AID652243 (Drosophila RNAi Screening Center, 2013)
The screen tested about 24,000 reagents; below is a random part of those that have a named target and a result. Of all reagents, 246 (1%) were called active. 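Plates not normalised; calls are printed but the firefly/Renilla ratio behind them is not deposited; fold cut for lowering reported inconsistently.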 Raw values vary from plate to plate and are shown uncorrected. Reagents against one gene are numbered here. Not stated in the record: the amount of reagent.

Assay: 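Knock-downs that decrease or increase androgen receptor reporter signal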 (primary screen)
Cell system: Drosophila S2R+ cells
Reagent: long dsRNA against Drosophila genes
Timing: 72 h (48 h, then 24 h hormone)
Treatment: synthetic androgen R1881 at 10 nM for 24 h
Detection: 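Firefly light from an androgen-responsive reporter and Renilla control light per well, raw and unnormalised, for each of two replicates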
Direction: firefly reporter light: higher = more light from androgen-responsive reporter; Renilla control light: higher = more constitutive control signal (cell number, transfection)
Active means: 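Across duplicate plates, a knock-down whose log firefly/Renilla ratio shifted a set fold down or up from the GFP/LacZ control mean was a hit; the downward cut appears as both 1.5 and 3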
Calls: active = hit: reporter lowered or raised; inactive = no hit

gene | reagent | firefly reporter light, replicate 1 | firefly reporter light, replicate 2 | Renilla control light, replicate 1 | Renilla control light, replicate 2 | Call
AMPKalpha (AMP-activated protein kinase alpha subunit) | 1 | 70461 | 1.04e5 | 7.56e5 | 5.44e5 | inactive
AMPKalpha (AMP-activated protein kinase alpha subunit) | 2 | 4.41e5 | 4.66e5 | 1.52e6 | 1.70e6 | inactive
AMPKalpha (AMP-activated protein kinase alpha subunit) | 3 | – | – | – | – | inactive
CG12194 | 1 | 87330 | 69106 | 4.60e5 | 4.67e5 | inactive
CG12194 | 2 | 1.06e6 | 1.14e6 | 1.20e6 | 1.16e6 | inactive
Sirt4 (Sirtuin 4) | 1 | 1.90e5 | 2.43e5 | 1.77e6 | 2.03e6 | inactive
Sirt4 (Sirtuin 4) | 2 | 4.15e5 | 3.71e5 | 7.24e5 | 8.07e5 | inactive
RabGGTb (Rab geranylgeranyltransferase subunit beta) | 1 | 6.86e5 | 7.81e5 | 2.60e6 | 2.03e6 | inactive
RabGGTb (Rab geranylgeranyltransferase subunit beta) | 2 | 3.73e5 | 6.42e5 | 4.42e5 | 4.42e5 | inactive
l(3)73Ah (lethal (3) 73Ah) | 1 | 2.36e5 | 1.78e5 | 1.48e6 | 1.25e6 | inactive
CG12607 | 1 | 1.38e5 | 1.22e5 | 1.95e6 | 1.80e6 | inactive
SP2353 | 1 | 10969 | 10123 | 3.67e5 | 3.67e5 | active
SP2353 | 2 | 1.99e5 | 2.70e5 | 6.73e5 | 5.98e5 | inactive
kek1 (kekkon 1) | 1 | 1.98e5 | 3.23e5 | 1.32e6 | 1.61e6 | inactive
kek1 (kekkon 1) | 2 | – | – | – | – | inactive
kek1 (kekkon 1) | 3 | – | – | – | – | inactive
mud (mushroom body defect) | 1 | 4.20e5 | 2.61e5 | 3.65e5 | 1.74e5 | inactive
CG4734 | 1 | 2.90e5 | 2.98e5 | 1.74e6 | 2.26e6 | inactive
CG4734 | 2 | 6.58e5 | 5.85e5 | 2.60e5 | 2.09e5 | inactive
CG7675 | 1 | 96596 | 72885 | 6.49e5 | 6.38e5 | inactive
CG7675 | 2 | 3.92e5 | 3.52e5 | 5.81e5 | 4.23e5 | inactive
veg (retired record) | 1 | 51736 | 78761 | 9.58e5 | 9.58e5 | inactive
CG3640 | 1 | 2.67e5 | 3.07e5 | 2.20e6 | 2.22e6 | inactive
CG5397 | 1 | 6.42e5 | 7.92e5 | 1.47e6 | 1.58e6 | inactive
CG5397 | 2 | 5.05e5 | 6.52e5 | 8.56e5 | 1.05e6 | inactive
CG14205 | 1 | 3.11e5 | 1.48e5 | 1.14e6 | 7.04e5 | inactive
CG14205 | 2 | 3.64e5 | 5.45e5 | 1.46e6 | 2.18e6 | inactive
CG14205 | 3 | 9.55e5 | 1.05e6 | 1.91e6 | 1.91e6 | inactive
CG3348 | 1 | 2.22e5 | 1.96e5 | 1.95e6 | 2.38e6 | inactive
HPS4 (Hermansky-Pudlak Syndrome 4) | 1 | 65388 | 50570 | 5.80e5 | 5.80e5 | inactive
PTP-ER (Protein tyrosine phosphatase-ERK/Enhancer of Ras1) | 1 | 7.98e5 | 8.94e5 | 2.00e6 | 2.62e6 | inactive
PTP-ER (Protein tyrosine phosphatase-ERK/Enhancer of Ras1) | 2 | 4.71e5 | 5.20e5 | 6.03e5 | 6.70e5 | inactive
PTP-ER (Protein tyrosine phosphatase-ERK/Enhancer of Ras1) | 3 | 4.74e5 | 7.80e5 | 9.86e5 | 1.43e6 | inactive
Lk (Leucokinin) | 1 | 2.38e5 | 2.06e5 | 3.02e6 | 2.43e6 | inactive

Look-ups from the list:
Entry for SP2353 #2 under “Renilla control light, replicate 1”: 6.73e5
CG4734 #2, Call → inactive
Lk (Leucokinin), Call: inactive
Under “Call”, CG12607 shows inactive
Result for AMPKalpha (AMP-activated protein kinase alpha subunit) #1 in “firefly reporter light, replicate 2”: 1.04e5

Additional reagents follow.
gene | reagent | firefly reporter light, replicate 1 | firefly reporter light, replicate 2 | Renilla control light, replicate 1 | Renilla control light, replicate 2 | Call
Edc3 (Enhancer of decapping 3) | 1 | 47135 | 37054 | 3.05e5 | 2.66e5 | inactive
Edc3 (Enhancer of decapping 3) | 2 | 1.15e6 | 1.10e6 | 1.26e6 | 1.30e6 | inactive
sfl (sulfateless) | 1 | 1.14e5 | 1.61e5 | 4.52e5 | 4.44e5 | inactive
sfl (sulfateless) | 2 | 1.20e5 | 1.26e5 | 4.78e5 | 4.03e5 | inactive
sfl (sulfateless) | 3 | 2.83e5 | 3.11e5 | 7.43e5 | 6.26e5 | inactive
qsm (quasimodo) | 1 | 3.11e5 | 3.33e5 | 6.26e5 | 3.92e5 | inactive
qsm (quasimodo) | 2 | 61238 | 84516 | 7.97e5 | 1.17e6 | inactive
qsm (quasimodo) | 3 | 5.22e5 | 5.23e5 | 3.86e5 | 4.92e5 | inactive
CG8004 | 1 | 12514 | 18610 | 1.54e5 | 1.89e5 | inactive
CG8004 | 2 | 3.15e5 | 4.72e5 | 6.95e5 | 8.24e5 | inactive
l(2)10685 (lethal (2) 10685) | 1 | 7.26e5 | 8.49e5 | 2.22e6 | 1.95e6 | inactive
l(2)10685 (lethal (2) 10685) | 2 | 4.22e5 | 3.22e5 | 5.08e5 | 8.25e5 | inactive
CG7974 | 1 | 8.36e5 | 7.03e5 | 7.23e5 | 7.10e5 | inactive
CG7974 | 2 | 4.46e5 | 4.78e5 | 7.29e5 | 7.75e5 | inactive
Jon65Aii (Jonah 65Aii) | 1 | 2.47e5 | 2.92e5 | 1.85e6 | 2.02e6 | inactive
CG10321 | 1 | 3.41e5 | 3.74e5 | 2.34e6 | 3.09e6 | inactive
CG10321 | 2 | 3.50e5 | 7.48e5 | 1.08e6 | 1.48e6 | inactive
CG32650 | 1 | 60557 | 64560 | 7.51e5 | 7.67e5 | inactive
CG34124 | 1 | 1.23e5 | 1.43e5 | 3.66e5 | 3.88e5 | inactive
CR18166 (pseudo) | 1 | 8.45e5 | 7.78e5 | 5.75e5 | 3.61e5 | inactive
CR18166 (pseudo) | 2 | 3.97e5 | 3.08e5 | 2.96e6 | 2.50e6 | inactive
CR18166 (pseudo) | 3 | 2.27e5 | 2.51e5 | 1.86e5 | 6.32e5 | inactive
CG6465 | 1 | 61308 | 72931 | 4.78e5 | 5.42e5 | inactive
CG6465 | 2 | 1.56e6 | 1.16e6 | 1.06e6 | 1.07e6 | inactive
